Earlier results in patent publication US12173291B2, “Unnatural base pair compositions and methods of use” (THE SCRIPPS RESEARCH INSTITUTE, priority 2017, dated 2024).

Test system: E. coli
Settings: actively growing cultures of E. coli; cited from earlier work

| SMILES | Extracellular degradation to di- and mono-phosphate and nucleoside species |
| --- | --- |
| COc1cc2ccccc2cc1[C@H]1C[C@H](O)[C@@H](COP(=O)(O)OP(=O)(O)OP(=O)(O)O)O1 [dNaMTP, triphosphate of dNaM] | degrade |
| O=P(O)(O)OP(=O)(O)OP(=O)(O)OC[C@H]1O[C@@H](n2ccc3ccsc3c2=S)C[C@@H]1O [dTPT3TP] | degrade |
